This passage reports NP40-soluble protein abundance results from the supplement of paper PMC6411743.

By UniProt entry, the sequences of proteins in these tests, tags left out. Where a name states a change or a piece, a line headed by the entry shows the natural chain unless it says otherwise.
UniProt Q9HAV7: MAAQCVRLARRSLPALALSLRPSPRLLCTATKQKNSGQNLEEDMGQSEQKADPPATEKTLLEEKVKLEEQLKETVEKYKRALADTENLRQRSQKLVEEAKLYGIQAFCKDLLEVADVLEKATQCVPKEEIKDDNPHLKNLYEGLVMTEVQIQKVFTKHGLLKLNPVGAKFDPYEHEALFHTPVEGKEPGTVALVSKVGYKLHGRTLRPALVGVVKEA
UniProt Q9NQT4, whole entry: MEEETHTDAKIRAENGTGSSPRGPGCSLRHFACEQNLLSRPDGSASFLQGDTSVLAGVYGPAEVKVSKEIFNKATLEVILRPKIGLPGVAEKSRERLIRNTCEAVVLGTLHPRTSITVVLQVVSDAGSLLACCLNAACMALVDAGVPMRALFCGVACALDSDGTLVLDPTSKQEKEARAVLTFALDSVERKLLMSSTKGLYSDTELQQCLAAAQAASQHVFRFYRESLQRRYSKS
UniProt Q9H078: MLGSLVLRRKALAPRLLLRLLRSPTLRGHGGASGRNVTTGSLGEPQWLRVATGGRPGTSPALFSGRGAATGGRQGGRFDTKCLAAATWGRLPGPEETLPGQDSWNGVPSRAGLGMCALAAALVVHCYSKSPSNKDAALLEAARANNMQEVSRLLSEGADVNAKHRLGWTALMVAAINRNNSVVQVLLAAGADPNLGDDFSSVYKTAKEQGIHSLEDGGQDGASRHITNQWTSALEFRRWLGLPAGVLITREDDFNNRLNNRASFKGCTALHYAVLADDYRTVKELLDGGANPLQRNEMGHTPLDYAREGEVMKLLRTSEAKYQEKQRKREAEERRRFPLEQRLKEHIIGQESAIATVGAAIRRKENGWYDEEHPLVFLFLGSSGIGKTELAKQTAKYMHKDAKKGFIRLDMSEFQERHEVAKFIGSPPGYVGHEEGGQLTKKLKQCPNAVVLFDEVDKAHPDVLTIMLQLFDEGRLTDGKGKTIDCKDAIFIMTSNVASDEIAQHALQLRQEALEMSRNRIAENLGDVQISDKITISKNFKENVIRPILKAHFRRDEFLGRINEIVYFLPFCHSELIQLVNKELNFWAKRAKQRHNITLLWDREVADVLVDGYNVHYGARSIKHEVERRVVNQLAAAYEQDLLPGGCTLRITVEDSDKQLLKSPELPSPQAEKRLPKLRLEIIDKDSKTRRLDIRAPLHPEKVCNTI
UniProt Q9NRY4: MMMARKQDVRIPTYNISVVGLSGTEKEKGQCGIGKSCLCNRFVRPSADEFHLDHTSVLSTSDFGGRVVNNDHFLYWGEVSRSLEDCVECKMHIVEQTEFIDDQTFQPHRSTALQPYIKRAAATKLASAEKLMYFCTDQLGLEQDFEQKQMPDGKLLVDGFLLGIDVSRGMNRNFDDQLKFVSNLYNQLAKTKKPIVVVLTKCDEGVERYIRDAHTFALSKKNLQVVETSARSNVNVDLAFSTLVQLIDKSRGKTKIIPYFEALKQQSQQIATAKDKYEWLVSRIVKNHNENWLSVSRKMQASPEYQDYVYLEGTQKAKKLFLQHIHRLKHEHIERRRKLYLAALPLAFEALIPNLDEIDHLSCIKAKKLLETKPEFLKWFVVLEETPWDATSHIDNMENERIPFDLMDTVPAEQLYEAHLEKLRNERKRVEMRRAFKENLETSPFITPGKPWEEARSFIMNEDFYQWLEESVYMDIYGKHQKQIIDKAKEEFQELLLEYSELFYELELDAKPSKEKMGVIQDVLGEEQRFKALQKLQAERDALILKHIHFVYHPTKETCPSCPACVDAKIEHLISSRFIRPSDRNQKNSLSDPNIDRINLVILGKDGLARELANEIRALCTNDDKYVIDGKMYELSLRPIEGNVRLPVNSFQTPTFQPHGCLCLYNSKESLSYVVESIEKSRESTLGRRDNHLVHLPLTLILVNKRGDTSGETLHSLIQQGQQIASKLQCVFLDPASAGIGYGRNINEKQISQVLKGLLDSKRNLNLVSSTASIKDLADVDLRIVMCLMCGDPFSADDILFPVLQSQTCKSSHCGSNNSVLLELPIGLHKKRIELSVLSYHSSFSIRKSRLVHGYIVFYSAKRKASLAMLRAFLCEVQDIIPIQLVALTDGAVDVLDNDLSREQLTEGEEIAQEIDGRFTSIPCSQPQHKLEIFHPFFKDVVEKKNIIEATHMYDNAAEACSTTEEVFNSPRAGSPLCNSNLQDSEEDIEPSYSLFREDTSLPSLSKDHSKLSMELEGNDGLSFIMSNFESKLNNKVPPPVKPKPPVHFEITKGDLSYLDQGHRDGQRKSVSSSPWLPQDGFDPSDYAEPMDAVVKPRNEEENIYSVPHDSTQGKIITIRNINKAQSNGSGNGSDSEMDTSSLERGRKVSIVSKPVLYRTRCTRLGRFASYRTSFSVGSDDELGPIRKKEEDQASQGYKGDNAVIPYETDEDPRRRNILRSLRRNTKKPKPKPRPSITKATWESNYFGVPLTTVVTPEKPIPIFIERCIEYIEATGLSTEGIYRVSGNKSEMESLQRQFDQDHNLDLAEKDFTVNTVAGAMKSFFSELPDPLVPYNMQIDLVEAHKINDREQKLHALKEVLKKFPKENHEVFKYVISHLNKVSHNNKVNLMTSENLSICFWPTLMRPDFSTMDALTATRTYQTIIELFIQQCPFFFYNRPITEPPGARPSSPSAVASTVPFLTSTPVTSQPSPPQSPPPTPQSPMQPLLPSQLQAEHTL
UniProt Q9HA77: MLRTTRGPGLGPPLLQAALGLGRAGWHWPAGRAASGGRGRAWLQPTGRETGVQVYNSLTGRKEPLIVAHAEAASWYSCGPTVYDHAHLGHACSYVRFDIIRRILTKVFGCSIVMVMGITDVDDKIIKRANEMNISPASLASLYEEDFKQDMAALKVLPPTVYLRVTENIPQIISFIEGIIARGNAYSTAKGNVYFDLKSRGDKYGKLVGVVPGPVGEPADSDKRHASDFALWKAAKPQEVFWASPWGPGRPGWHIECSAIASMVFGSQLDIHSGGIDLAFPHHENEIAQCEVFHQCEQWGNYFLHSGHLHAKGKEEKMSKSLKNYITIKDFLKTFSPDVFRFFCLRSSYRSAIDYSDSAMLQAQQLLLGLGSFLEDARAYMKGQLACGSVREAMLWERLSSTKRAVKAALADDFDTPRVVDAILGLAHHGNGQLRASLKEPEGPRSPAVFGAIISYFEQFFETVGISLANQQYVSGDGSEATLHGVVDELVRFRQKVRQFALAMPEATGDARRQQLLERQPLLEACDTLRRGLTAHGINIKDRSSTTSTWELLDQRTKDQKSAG
UniProt Q9H074: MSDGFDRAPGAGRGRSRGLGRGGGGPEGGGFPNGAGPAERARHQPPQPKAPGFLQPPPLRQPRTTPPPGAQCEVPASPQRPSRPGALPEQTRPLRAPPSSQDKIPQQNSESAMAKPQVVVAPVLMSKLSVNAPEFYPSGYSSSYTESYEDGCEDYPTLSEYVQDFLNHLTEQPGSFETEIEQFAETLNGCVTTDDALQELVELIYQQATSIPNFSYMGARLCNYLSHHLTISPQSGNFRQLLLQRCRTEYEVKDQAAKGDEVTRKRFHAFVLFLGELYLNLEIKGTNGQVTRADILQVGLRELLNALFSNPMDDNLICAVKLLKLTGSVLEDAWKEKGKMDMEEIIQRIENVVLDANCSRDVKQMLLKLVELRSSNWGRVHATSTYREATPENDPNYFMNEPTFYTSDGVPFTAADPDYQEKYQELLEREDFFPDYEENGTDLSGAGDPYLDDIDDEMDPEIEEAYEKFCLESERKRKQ
UniProt Q9HBI0: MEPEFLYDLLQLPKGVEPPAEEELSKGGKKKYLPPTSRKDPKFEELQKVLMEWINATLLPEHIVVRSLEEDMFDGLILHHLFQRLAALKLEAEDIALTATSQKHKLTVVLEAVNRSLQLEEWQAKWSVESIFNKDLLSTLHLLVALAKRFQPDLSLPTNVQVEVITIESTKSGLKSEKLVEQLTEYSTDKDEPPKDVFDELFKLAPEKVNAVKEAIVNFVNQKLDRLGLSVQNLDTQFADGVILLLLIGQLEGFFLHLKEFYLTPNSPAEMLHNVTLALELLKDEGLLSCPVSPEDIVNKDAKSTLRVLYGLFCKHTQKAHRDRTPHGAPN
UniProt Q9NRD1: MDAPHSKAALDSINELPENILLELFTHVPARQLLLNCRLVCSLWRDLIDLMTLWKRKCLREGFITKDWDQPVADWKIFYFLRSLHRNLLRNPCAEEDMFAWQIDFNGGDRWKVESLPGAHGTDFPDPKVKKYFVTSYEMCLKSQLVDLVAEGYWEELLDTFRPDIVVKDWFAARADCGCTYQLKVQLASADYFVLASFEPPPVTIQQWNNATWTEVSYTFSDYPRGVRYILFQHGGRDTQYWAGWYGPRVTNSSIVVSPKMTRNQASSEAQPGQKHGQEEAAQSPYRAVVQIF
UniProt Q9HCJ0: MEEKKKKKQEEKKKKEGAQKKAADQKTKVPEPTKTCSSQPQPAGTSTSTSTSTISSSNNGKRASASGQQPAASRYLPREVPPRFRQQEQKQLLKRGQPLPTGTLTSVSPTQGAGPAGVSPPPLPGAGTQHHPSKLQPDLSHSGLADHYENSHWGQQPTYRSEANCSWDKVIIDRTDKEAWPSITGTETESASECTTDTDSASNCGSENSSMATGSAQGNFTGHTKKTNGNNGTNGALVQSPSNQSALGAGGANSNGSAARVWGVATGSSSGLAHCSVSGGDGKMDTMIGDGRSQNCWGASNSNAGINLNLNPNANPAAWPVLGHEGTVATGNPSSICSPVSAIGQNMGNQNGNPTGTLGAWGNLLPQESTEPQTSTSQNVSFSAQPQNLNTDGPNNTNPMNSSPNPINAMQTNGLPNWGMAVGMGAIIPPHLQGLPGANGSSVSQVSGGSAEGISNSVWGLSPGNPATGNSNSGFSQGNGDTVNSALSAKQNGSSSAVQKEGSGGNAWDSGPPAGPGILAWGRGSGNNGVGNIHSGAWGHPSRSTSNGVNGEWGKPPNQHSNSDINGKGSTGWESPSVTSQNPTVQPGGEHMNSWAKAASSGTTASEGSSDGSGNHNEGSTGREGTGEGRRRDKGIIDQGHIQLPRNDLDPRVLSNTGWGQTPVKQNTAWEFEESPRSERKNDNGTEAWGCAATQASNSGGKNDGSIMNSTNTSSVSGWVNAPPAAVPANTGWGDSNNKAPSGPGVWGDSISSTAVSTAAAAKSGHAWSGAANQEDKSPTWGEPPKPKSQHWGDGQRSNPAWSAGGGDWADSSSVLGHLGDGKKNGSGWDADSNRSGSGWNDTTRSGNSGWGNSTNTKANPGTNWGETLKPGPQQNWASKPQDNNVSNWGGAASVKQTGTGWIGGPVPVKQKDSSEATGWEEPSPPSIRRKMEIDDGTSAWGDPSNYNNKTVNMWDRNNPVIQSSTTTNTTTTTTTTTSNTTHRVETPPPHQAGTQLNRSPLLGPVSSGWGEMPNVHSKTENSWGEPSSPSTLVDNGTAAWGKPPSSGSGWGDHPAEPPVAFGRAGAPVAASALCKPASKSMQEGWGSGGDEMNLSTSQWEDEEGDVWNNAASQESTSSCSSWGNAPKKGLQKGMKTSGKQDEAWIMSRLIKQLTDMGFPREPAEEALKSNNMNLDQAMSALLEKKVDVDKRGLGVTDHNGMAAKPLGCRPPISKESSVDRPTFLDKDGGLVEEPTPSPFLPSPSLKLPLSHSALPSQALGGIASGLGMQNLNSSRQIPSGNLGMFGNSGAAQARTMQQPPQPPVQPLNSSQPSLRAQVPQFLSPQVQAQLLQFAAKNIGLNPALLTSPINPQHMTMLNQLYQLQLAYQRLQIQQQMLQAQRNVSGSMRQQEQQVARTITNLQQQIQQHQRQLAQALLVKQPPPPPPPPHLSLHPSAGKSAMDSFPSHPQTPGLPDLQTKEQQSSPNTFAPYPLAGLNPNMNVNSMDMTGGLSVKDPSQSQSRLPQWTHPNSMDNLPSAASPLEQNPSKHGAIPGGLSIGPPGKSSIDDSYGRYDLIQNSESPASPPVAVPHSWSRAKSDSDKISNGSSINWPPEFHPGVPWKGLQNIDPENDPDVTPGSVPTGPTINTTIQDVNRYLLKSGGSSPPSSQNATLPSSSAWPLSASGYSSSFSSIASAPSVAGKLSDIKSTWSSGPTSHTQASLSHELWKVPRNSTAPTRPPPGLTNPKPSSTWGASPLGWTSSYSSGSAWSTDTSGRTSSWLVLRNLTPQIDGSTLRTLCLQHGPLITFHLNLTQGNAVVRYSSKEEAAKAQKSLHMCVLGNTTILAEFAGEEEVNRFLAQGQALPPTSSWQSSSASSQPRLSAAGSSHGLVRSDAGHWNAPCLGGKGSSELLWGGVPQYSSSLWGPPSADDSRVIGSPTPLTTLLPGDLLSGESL
UniProt Q9H425: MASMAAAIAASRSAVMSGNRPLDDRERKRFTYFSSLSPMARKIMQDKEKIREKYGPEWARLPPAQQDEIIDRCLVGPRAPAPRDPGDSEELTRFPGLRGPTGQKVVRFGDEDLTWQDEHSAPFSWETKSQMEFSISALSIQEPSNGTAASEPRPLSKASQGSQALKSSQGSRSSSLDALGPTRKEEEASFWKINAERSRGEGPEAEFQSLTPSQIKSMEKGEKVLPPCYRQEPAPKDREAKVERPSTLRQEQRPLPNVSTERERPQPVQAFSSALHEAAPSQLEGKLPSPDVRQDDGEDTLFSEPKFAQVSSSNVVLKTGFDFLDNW

Compound in this experiment: Nc1nc2c(ncn2[C@@H]2O[C@H](COP(=O)(O)OP(=O)(O)OP(=O)(O)O)[C@@H](O)[C@H]2O)c(=O)[nH]1 [guanosine triphosphate]
Put plainly: NP40-soluble protein abundance relative to vehicle (solubility fold change) (ratio); higher = more soluble protein in presence of GTP. The essentials: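 Across three independent experiments, values are fold changes against the detergent-processed vehicle for each replicate, based on vsn-normalised intensities. The samples were Jurkat crude lysate treated with eight concentrations (0.1 to 10 mM) for 10 min at room temperature and then 3 min at 37 °C. Lysate was solubilised with 0.8% NP40 and benzonase, ultracentrifuged, and the supernatant analysed by TMT-labelled LC-MS/MS.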

± gives the standard deviation of the averaged measurements. This is one part of the list.

As for GRPEL1 (UniProt Q9HAV7), the NP40-soluble protein abundance is, setting by setting: (concentration: 0.1mM) 0.9614 ± 0.008; (concentration: 0.5mM) 0.932 ± 0.03; (concentration: 1mM) 1.01 ± 0.046; (concentration: 2mM) 0.941 ± 0.015; (concentration: 4mM) 0.935 ± 0.054; (concentration: 6mM) 0.96 ± 0.049. The NP40-soluble protein abundance by setting is: (concentration: 8mM) 1.02 ± 0.056; (concentration: 10mM) 1.04 ± 0.016.
With EXOSC5 (UniProt Q9NQT4), the NP40-soluble protein abundance is, setting by setting: (concentration: 0.1mM) 1.08 ± 0.037; (concentration: 0.5mM) 1.01 ± 0.087; (concentration: 1mM) 1.03 ± 0.051; (concentration: 2mM) 1.17 ± 0.085; (concentration: 4mM) 1.22 ± 0.055; (concentration: 6mM) 1.3 ± 0.037. In addition, the NP40-soluble protein abundance (concentration: 8mM) was found to be 1.34 ± 0.1 and the NP40-soluble protein abundance (concentration: 10mM) is 1.33 ± 0.085.
For the target MRPL46 (UniProt Q9H2W6), the NP40-soluble protein abundance runs as follows: (concentration: 0.1mM) 0.904 ± 0.21; (concentration: 0.5mM) 0.888 ± 0.2; (concentration: 1mM) 1.11 ± 0.22; (concentration: 2mM) 1.18 ± 0.22; (concentration: 4mM) 1.15 ± 0.2; (concentration: 6mM) 1.14 ± 0.22. For the same target, the NP40-soluble protein abundance is, setting by setting: (concentration: 8mM) 0.981 ± 0.22; (concentration: 10mM) 1.09 ± 0.29.
For UniProt Q9H078 and related entries, the NP40-soluble protein abundance runs as follows: (concentration: 0.1mM) 1.02 ± 0.096; (concentration: 0.5mM) 1.11 ± 0.16; (concentration: 1mM) 1.03 ± 0.11; (concentration: 2mM) 1.06 ± 0.081; (concentration: 4mM) 1.02 ± 0.098; (concentration: 6mM) 1.08 ± 0.098. Moreover, the NP40-soluble protein abundance runs as follows: (concentration: 8mM) 1.02 ± 0.091; (concentration: 10mM) 1.01 ± 0.063.
Consider UniProt Q9NRY4, for which the NP40-soluble protein abundance by setting is: (concentration: 0.1mM) 1.09 ± 0.049; (concentration: 0.5mM) 1.03 ± 0.058; (concentration: 1mM) 1.04 ± 0.041; (concentration: 2mM) 1.04 ± 0.039; (concentration: 4mM) 1.02 ± 0.044; (concentration: 6mM) 1.03 ± 0.017. The NP40-soluble protein abundance (concentration: 8mM) was determined as 0.954 ± 0.062 and the NP40-soluble protein abundance (concentration: 10mM) is 0.952 ± 0.044.
Consider XRN2 (UniProt Q9H0D6), for which the NP40-soluble protein abundance is, setting by setting: (concentration: 0.1mM) 0.993 ± 0.025; (concentration: 0.5mM) 0.995 ± 0.027; (concentration: 1mM) 0.974 ± 0.017; (concentration: 2mM) 0.977 ± 0.027; (concentration: 4mM) 0.985 ± 0.018; (concentration: 6mM) 0.986 ± 0.027. The NP40-soluble protein abundance is, setting by setting: (concentration: 8mM) 1 ± 0.039; (concentration: 10mM) 0.982 ± 0.028.
For the target CARS2 (UniProt Q9HA77), the NP40-soluble protein abundance by setting is: (concentration: 0.1mM) 1.02 ± 0.052; (concentration: 0.5mM) 1 ± 0.034; (concentration: 1mM) 0.937 ± 0.02; (concentration: 2mM) 0.9362 ± 0.0034; (concentration: 4mM) 0.928 ± 0.034; (concentration: 6mM) 0.908 ± 0.023. Also, the NP40-soluble protein abundance runs as follows: (concentration: 8mM) 0.916 ± 0.078; (concentration: 10mM) 0.877 ± 0.027.
As for PAIP1 (UniProt Q9H074), the NP40-soluble protein abundance runs as follows: (concentration: 0.1mM) 1.02 ± 0.033; (concentration: 0.5mM) 0.934 ± 0.064; (concentration: 1mM) 1.01 ± 0.024; (concentration: 2mM) 0.963 ± 0.019; (concentration: 4mM) 0.966 ± 0.023; (concentration: 6mM) 0.928 ± 0.028. The NP40-soluble protein abundance amounted to 0.928 ± 0.11 (concentration: 8mM) and 0.941 ± 0.034 (concentration: 10mM).
Turning to SPC25 (UniProt Q9HBM1), the NP40-soluble protein abundance reads like this: (concentration: 0.1mM) 0.948 ± 0.016; (concentration: 0.5mM) 0.858 ± 0.07; (concentration: 1mM) 0.926 ± 0.085; (concentration: 2mM) 0.897 ± 0.053; (concentration: 4mM) 0.899 ± 0.038; (concentration: 6mM) 0.875 ± 0.045. For the same target, the NP40-soluble protein abundance came out at 0.869 ± 0.085 (concentration: 8mM) and 0.831 ± 0.056 (concentration: 10mM).
Take PARVG (UniProt Q9HBI0): the NP40-soluble protein abundance turned out to be 1.09 ± 0.11 (concentration: 0.1mM); 1.04 ± 0.055 (concentration: 0.5mM); 1.09 ± 0.047 (concentration: 1mM); 1.02 ± 0.022 (concentration: 2mM); 0.994 ± 0.073 (concentration: 4mM); 0.991 ± 0.06 (concentration: 6mM). In addition, the NP40-soluble protein abundance came out at 0.992 ± 0.053 (concentration: 8mM) and 0.919 ± 0.086 (concentration: 10mM).
On to FBXO6 (UniProt Q9NRD1), for which the NP40-soluble protein abundance is, setting by setting: (concentration: 0.1mM) 1.17 ± 0.17; (concentration: 0.5mM) 1.07 ± 0.033; (concentration: 1mM) 1.13 ± 0.062; (concentration: 2mM) 1.03 ± 0.025; (concentration: 4mM) 1.08 ± 0.13; (concentration: 6mM) 0.969 ± 0.14. The NP40-soluble protein abundance runs as follows: (concentration: 8mM) 0.965 ± 0.17; (concentration: 10mM) 1.05 ± 0.17.
Turning to ZDHHC18 (UniProt Q9NUE0), the NP40-soluble protein abundance by setting is: (concentration: 0.1mM) 1.14 ± 0.17; (concentration: 0.5mM) 1.17 ± 0.091; (concentration: 1mM) 1.24 ± 0.062; (concentration: 2mM) 1.24 ± 0.14; (concentration: 4mM) 1.17 ± 0.1; (concentration: 6mM) 1.2 ± 0.13. In addition, the NP40-soluble protein abundance is, setting by setting: (concentration: 8mM) 1.02 ± 0.041; (concentration: 10mM) 1.1 ± 0.16.
On to HINT3 (UniProt Q9NQE9), for which the NP40-soluble protein abundance is, setting by setting: (concentration: 0.1mM) 1.04 ± 0.023; (concentration: 0.5mM) 1.04 ± 0.024; (concentration: 1mM) 0.983 ± 0.058; (concentration: 2mM) 0.955 ± 0.056; (concentration: 4mM) 0.911 ± 0.033; (concentration: 6mM) 0.929 ± 0.031. For the same target, the NP40-soluble protein abundance came to 0.918 ± 0.038 (concentration: 8mM) and 0.905 ± 0.08 (concentration: 10mM).
As for UniProt Q9HCJ0 and related entries, the NP40-soluble protein abundance was 1.09 ± 0.051 (concentration: 0.1mM); 1.06 ± 0.044 (concentration: 0.5mM); 1.01 ± 0.12 (concentration: 1mM); 1.05 ± 0.032 (concentration: 2mM); 0.972 ± 0.081 (concentration: 4mM); 1.03 ± 0.077 (concentration: 6mM). Also, the NP40-soluble protein abundance came to 1.05 ± 0.023 (concentration: 8mM) and 1.07 ± 0.037 (concentration: 10mM).
UniProt Q9H425 and related entries: the NP40-soluble protein abundance came out at 0.956 ± 0.06 (concentration: 0.1mM); 0.956 ± 0.11 (concentration: 0.5mM); 1.05 ± 0.14 (concentration: 1mM); 0.983 ± 0.14 (concentration: 2mM); 0.973 ± 0.14 (concentration: 4mM); 0.994 ± 0.13 (concentration: 6mM). Further, the NP40-soluble protein abundance (concentration: 8mM) was 1.01 ± 0.064 and the NP40-soluble protein abundance (concentration: 10mM) is 0.989 ± 0.079.
